Reference: PubChem BioAssay AID1259254 (NCATS, 2017)
In all, the deposit lists about 59,000 reagents; below is an unselected part. About 1,550 of them (2.6%) count as active. 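G2 share is only a proxy for re-replication; each gene was hit by three separate siRNAs, and active genes were retested.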 Entries without a mark were called inactive. Reagents against one gene are numbered here. Further read-outs or replicates are left out here. Not given: the amount of reagent.

Aim: 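Genome-wide screen for genes that prevent DNA re-replication in cancer cells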 (primary screen)
Cell system: human HCT116 colorectal cancer cells
Reagent: single siRNA against human genes
Time to read-out: 3 days
Detection: 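Nuclei stained with Hoechst and imaged; cell-cycle phase assigned by DNA content; G2 share scaled per plate, non-targeting siRNA 0%, GMNN siRNA 100%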
Direction: G2 robust z-score and G2 cells, % of GMNN control: higher = more G2 cells, more excess DNA replication
Call rule: 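An siRNA counts as active if its G2 robust z-score lies at least 5 MADs above the screen median; here such calls match roughly 38% of GMNN control or more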

The first 3 records, to show the layout:
{"Target gene":"DTD1 (D-aminoacyl-tRNA deacylase 1)","reagent no.":1,"G2 robust z-score":0.159,"G2 cells, % of GMNN control":4.09}
{"Target gene":"DTD1 (D-aminoacyl-tRNA deacylase 1)","reagent no.":2,"G2 robust z-score":-0.384,"G2 cells, % of GMNN control":0.263}
{"Target gene":"DTD1 (D-aminoacyl-tRNA deacylase 1)","reagent no.":3,"G2 robust z-score":-1.18,"G2 cells, % of GMNN control":-5.36}

Results, repeating the preview:
{"Target gene":"DTD1 (D-aminoacyl-tRNA deacylase 1)","reagent no.":1,"G2 robust z-score":0.159,"G2 cells, % of GMNN control":4.09}
{"Target gene":"DTD1 (D-aminoacyl-tRNA deacylase 1)","reagent no.":2,"G2 robust z-score":-0.384,"G2 cells, % of GMNN control":0.263}
{"Target gene":"DTD1 (D-aminoacyl-tRNA deacylase 1)","reagent no.":3,"G2 robust z-score":-1.18,"G2 cells, % of GMNN control":-5.36}
{"Target gene":"FLJ37786 (retired record)","reagent no.":1,"G2 robust z-score":0.00959,"G2 cells, % of GMNN control":3.03}
{"Target gene":"FLJ37786 (retired record)","reagent no.":2,"G2 robust z-score":1.86,"G2 cells, % of GMNN control":16.1}
{"Target gene":"FLJ37786 (retired record)","reagent no.":3,"G2 robust z-score":-0.342,"G2 cells, % of GMNN control":0.559}
{"Target gene":"ZNF429 (zinc finger protein 429)","reagent no.":1,"G2 robust z-score":0.466,"G2 cells, % of GMNN control":6.25}
{"Target gene":"ZNF429 (zinc finger protein 429)","reagent no.":2,"G2 robust z-score":0.879,"G2 cells, % of GMNN control":9.15}
{"Target gene":"ZNF429 (zinc finger protein 429)","reagent no.":3,"G2 robust z-score":0.147,"G2 cells, % of GMNN control":4}
{"Target gene":"TBC1D2 (TBC1 domain family member 2)","reagent no.":1,"G2 robust z-score":-0.0389,"G2 cells, % of GMNN control":2.69}
{"Target gene":"TBC1D2 (TBC1 domain family member 2)","reagent no.":2,"G2 robust z-score":1.05,"G2 cells, % of GMNN control":10.4}
{"Target gene":"TBC1D2 (TBC1 domain family member 2)","reagent no.":3,"G2 robust z-score":-0.198,"G2 cells, % of GMNN control":1.58}
{"Target gene":"BOD1 (biorientation of chromosomes in cell division 1)","reagent no.":1,"G2 robust z-score":1.83,"G2 cells, % of GMNN control":15.9}
{"Target gene":"BOD1 (biorientation of chromosomes in cell division 1)","reagent no.":2,"G2 robust z-score":-0.0205,"G2 cells, % of GMNN control":2.82}
{"Target gene":"BOD1 (biorientation of chromosomes in cell division 1)","reagent no.":3,"G2 robust z-score":0.54,"G2 cells, % of GMNN control":6.77}
{"Target gene":"MCUB","reagent no.":1,"G2 robust z-score":3.93,"G2 cells, % of GMNN control":30.6}
{"Target gene":"MCUB","reagent no.":2,"G2 robust z-score":-0.837,"G2 cells, % of GMNN control":-2.92}
{"Target gene":"MCUB","reagent no.":3,"G2 robust z-score":-0.498,"G2 cells, % of GMNN control":-0.536}
{"Target gene":"NUP85 (nucleoporin 85)","reagent no.":1,"G2 robust z-score":-1.58,"G2 cells, % of GMNN control":-8.16}
{"Target gene":"NUP85 (nucleoporin 85)","reagent no.":2,"G2 robust z-score":-0.0612,"G2 cells, % of GMNN control":2.54}
{"Target gene":"NUP85 (nucleoporin 85)","reagent no.":3,"G2 robust z-score":"9.57 (active)","G2 cells, % of GMNN control":70.3}
{"Target gene":"NEBL (nebulette)","reagent no.":1,"G2 robust z-score":-1.18,"G2 cells, % of GMNN control":-5.35}
{"Target gene":"NEBL (nebulette)","reagent no.":2,"G2 robust z-score":-1.3,"G2 cells, % of GMNN control":-6.18}
{"Target gene":"NEBL (nebulette)","reagent no.":3,"G2 robust z-score":-1.27,"G2 cells, % of GMNN control":-5.96}
{"Target gene":"NEBL (nebulette)","reagent no.":4,"G2 robust z-score":-0.465,"G2 cells, % of GMNN control":-0.307}
{"Target gene":"NEBL (nebulette)","reagent no.":5,"G2 robust z-score":-0.776,"G2 cells, % of GMNN control":-2.49}
{"Target gene":"NEBL (nebulette)","reagent no.":6,"G2 robust z-score":0.165,"G2 cells, % of GMNN control":4.13}
{"Target gene":"C1GALT1C1L (C1GALT1 specific chaperone 1 like)","reagent no.":1,"G2 robust z-score":3.18,"G2 cells, % of GMNN control":25.3}
{"Target gene":"C1GALT1C1L (C1GALT1 specific chaperone 1 like)","reagent no.":2,"G2 robust z-score":-0.549,"G2 cells, % of GMNN control":-0.898}
{"Target gene":"C1GALT1C1L (C1GALT1 specific chaperone 1 like)","reagent no.":3,"G2 robust z-score":0.0671,"G2 cells, % of GMNN control":3.44}
